Data reported in publication PMC4381397, “The recently identified modifier of murine metastable epialleles, Rearranged L-Myc Fusion, is involved in maintaining epigenetic marks at CpG island shores and enhancers”.
No constants are given. Whether binding was seen depends on the method and setting. Binding seen in cells or lysates may run through a third protein. Some results given as binding are weak or reduced against the parent protein; the word gives no strength.

Amino acid sequences for entries named in this document (tags omitted).
UniProt Q13129: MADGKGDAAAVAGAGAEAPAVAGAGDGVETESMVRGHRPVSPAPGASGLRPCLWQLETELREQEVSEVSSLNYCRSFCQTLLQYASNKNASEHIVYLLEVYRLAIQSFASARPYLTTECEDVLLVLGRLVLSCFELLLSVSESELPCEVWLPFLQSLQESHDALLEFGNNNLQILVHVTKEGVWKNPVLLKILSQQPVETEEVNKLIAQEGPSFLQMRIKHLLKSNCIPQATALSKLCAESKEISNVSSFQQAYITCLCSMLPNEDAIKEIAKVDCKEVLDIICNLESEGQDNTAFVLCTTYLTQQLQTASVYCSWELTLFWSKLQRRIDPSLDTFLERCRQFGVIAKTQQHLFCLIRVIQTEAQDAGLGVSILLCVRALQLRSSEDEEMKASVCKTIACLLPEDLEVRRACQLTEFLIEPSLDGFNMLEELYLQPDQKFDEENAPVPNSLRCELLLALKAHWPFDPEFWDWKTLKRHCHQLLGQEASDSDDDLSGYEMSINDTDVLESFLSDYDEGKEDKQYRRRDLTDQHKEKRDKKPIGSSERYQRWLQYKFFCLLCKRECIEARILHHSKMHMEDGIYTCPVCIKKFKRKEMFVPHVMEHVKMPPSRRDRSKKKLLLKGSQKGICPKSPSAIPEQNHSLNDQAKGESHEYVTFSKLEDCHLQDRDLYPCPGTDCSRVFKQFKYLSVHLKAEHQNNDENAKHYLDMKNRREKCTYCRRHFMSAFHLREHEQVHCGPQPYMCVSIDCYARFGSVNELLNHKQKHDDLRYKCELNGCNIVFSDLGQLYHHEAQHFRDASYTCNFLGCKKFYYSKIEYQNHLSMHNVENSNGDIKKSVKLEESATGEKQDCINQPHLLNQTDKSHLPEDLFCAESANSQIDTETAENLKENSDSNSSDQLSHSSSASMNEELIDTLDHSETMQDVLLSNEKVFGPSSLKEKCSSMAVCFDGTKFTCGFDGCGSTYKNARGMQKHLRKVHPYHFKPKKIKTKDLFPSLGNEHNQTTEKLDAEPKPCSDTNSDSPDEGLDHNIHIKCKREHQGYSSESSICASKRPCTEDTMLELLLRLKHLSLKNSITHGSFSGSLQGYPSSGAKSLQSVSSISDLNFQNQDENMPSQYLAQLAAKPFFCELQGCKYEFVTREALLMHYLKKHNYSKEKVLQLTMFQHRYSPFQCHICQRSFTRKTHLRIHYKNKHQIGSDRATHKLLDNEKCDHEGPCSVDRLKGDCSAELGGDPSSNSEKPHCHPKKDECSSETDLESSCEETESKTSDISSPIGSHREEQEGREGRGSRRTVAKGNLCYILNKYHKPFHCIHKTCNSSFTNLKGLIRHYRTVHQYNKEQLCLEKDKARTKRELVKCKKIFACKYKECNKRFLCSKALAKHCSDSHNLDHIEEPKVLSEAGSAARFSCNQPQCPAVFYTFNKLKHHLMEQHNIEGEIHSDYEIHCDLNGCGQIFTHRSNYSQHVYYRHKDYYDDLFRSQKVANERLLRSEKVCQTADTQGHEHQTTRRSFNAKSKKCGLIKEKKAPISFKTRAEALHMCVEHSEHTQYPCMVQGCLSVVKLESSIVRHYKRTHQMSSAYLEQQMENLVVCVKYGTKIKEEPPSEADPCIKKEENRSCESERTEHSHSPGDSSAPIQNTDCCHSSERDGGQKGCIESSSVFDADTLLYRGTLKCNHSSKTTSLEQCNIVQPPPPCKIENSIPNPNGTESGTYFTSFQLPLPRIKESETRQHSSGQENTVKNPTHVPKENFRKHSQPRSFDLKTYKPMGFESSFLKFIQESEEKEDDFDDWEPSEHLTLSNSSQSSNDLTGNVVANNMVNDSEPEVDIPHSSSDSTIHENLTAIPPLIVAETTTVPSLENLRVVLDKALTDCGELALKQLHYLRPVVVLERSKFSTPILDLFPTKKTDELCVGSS
UniProt P45973: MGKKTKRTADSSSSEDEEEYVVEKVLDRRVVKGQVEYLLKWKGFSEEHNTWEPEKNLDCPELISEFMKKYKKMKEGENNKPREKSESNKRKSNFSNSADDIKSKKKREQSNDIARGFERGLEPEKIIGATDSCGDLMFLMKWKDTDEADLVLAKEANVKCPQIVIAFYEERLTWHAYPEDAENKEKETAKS
UniProt O60934: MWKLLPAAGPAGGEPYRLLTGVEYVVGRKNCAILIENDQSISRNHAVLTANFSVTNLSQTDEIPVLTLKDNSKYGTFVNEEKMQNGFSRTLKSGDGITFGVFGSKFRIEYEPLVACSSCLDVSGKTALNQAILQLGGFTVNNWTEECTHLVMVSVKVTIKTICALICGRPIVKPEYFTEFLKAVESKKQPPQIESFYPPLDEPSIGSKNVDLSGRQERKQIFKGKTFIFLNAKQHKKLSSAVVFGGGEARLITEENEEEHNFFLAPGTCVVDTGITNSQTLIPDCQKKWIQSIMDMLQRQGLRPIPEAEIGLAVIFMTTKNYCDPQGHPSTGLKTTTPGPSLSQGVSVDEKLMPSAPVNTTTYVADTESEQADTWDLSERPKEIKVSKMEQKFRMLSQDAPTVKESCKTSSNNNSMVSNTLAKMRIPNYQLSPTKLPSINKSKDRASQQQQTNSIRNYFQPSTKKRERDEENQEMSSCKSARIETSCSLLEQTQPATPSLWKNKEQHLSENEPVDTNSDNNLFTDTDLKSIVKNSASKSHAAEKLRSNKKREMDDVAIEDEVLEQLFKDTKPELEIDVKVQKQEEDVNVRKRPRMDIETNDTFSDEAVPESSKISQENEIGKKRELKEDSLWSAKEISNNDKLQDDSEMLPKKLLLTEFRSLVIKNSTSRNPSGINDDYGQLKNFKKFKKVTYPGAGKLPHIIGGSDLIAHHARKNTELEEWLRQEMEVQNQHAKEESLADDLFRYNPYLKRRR
UniProt Q92878: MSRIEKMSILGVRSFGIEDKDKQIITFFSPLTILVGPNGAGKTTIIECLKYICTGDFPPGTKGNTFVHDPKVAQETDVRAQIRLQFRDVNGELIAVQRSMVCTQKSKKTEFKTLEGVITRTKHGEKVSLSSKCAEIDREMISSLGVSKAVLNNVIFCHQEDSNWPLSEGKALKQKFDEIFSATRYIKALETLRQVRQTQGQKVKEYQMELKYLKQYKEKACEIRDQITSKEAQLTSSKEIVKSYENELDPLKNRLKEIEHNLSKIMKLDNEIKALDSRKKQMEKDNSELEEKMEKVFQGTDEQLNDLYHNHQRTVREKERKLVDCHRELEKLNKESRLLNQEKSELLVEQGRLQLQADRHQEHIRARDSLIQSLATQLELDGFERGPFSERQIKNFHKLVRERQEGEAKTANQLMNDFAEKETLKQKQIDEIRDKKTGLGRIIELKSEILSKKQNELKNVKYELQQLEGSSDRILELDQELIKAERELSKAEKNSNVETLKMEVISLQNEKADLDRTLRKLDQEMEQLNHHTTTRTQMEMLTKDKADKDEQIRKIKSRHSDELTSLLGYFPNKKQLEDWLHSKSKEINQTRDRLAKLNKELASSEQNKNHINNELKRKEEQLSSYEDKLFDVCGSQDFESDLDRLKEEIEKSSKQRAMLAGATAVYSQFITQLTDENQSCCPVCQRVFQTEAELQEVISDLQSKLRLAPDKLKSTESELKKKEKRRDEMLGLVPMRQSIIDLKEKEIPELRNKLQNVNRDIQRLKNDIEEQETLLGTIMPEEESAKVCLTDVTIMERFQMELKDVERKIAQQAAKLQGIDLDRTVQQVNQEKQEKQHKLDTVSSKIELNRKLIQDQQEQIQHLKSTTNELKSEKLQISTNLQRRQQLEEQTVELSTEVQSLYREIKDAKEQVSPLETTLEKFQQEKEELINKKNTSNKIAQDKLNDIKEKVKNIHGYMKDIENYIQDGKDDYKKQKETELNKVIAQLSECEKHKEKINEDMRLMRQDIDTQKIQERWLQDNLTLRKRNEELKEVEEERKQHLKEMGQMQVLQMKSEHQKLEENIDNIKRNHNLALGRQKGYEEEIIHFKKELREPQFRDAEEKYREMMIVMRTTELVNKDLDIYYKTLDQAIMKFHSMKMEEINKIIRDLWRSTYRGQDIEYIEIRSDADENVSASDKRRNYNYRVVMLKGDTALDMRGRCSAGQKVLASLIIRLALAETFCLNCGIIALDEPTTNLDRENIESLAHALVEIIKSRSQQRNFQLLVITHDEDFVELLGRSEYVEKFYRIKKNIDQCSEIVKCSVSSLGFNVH
UniProt Q9UKL0: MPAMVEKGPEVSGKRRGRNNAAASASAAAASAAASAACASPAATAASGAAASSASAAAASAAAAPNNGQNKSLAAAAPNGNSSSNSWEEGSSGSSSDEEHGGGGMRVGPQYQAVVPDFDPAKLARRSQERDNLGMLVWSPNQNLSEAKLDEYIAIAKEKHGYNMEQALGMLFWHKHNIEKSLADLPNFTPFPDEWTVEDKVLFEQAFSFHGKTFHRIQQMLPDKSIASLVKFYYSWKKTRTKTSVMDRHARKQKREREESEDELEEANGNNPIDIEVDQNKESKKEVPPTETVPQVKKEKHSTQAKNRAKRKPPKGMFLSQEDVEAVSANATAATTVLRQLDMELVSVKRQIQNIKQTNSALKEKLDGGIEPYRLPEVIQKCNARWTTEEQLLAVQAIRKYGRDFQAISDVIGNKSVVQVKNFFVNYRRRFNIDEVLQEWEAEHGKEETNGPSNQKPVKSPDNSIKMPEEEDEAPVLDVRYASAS

Biological target: Myc-DDK-tagged human rearranged L-myc fusion (RLF-Flag) (human) (UniProt Q13129)
Assay: co-IP; anti-FLAG M2 magnetic beads on nuclear lysate of HEK293T cells transiently transfected with RLF-Flag or empty vector; High stringency IP buffer, 1 hr at 4°C; endogenous partners detected by Western blot; independent samples from those of the mass spectrometry

binding | Substance
binds | CBX5 (from UniProt P45973 1-191)
binds | NBS1 (from UniProt O60934 1-754)
binds | RAD50 (from UniProt Q92878 1-1312)
binds | RCOR1 (from UniProt Q9UKL0 1-485)
